Measured values reported in patent US20030065176A1, “Factor xa inhibitors with aryl-amidines and derivatives, and prodrugs thereof” (priority 2000, published 2003).
At least one structure is not confirmed: it was looked up by name or label, or the drawing left a doubt.

Target: T1, trypsin (UniProt P00760)
T1 construct: other: A1: cyclopropyl scaffold; other: A2: pyrrole scaffold; other: A3: bicyclic scaffold; other: A4: cyanophenylalanine scaffold
T1 sequence (P00760 1-246): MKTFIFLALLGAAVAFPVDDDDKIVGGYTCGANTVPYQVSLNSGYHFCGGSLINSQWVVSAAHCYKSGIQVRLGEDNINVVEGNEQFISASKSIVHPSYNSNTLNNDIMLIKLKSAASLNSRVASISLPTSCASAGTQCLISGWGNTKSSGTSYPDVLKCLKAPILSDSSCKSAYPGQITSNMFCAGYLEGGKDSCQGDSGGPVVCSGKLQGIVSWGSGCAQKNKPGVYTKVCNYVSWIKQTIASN
Test: Trypsin inhibition assay (selectivity against trypsin)
Type: biochemical
Conditions: A1: cyclopropyl scaffold; read-out: Inhibition ability against trypsin Ki
Procedure: The FXa inhibition selectivity of the compound according to the present invention to trypsin is measured as follows. The inhibition effect of the compound of formula 1 to trypsin is measured in Ki value by practicing the same method as the above measuring method of FXa inhibiting activity, and the rate of trypsin/FXa is obtained. At this time, the experimental method of thrombin is the same as that of FXa, except that N-benzoyl-Val-Gly-Arg-p-nitroanilide hydrochloride is used as the substrate.
Inhibition activity of a compound according to the present invention was measured by performing the experiment as explained above concerning FXa.
20 uM solution of N-benzoyl-Val-Gly-Arg-p-nitroanilide hydrochloride was used as a substrate. An inhibitor solution with various concentrations in the range of 0 to 120 uM was used. Trypsin was dissolved in 0.1N HCl, and supplemented with the above tris buffer solution to be 45 ug/mL. Thereafter, 40 uL of the trypsin solution was used. The remaining procedure and the used amounts of materials (for example, […] of total volume of the reaction solution) and the like were the same as those of the experiment for thrombin. Also, Km was decided in the same method as used in Ki calculation.

For `Cc1ccc(S(N)(=O)=O)c(-c2ccc(NC(=O)[C@@H]3C[C@@H]3c3cccc(C(=N)N)c3)cc2)c1.O=C(O)C(F)(F)F` (relative stereo) [Compound No. A1-4, 4-(2-aminosulfonyl-5-methyl-phenyl)-phenyl cis-2-(3-aminoiminomethylphenyl)-cyclopropane-1-carboxamide mono trfluoroacetic acid salt], the Ki was 0.51 µM.
